Results reported in PubChem BioAssay AID2718 (Broad Institute, 2010).
Values joined by “and” are separate entries in the source; they are usually repeats but may differ in a detail not shown here. Identical values can stand only once. Out of some 320,000 compounds screened, about 480 (0.15%) were called active. This list was built around the results that the source calls inconclusive (neither active nor inactive); the mix of calls is not that of the screen. Cut-off read from the data, not from the text of the source: active = inhibition above about 26% (passing the limit was not always enough); inconclusive = no clear call, values can overlap the other calls.

Amino acid sequences for entries named in this document (tags omitted).
UniProt O15379, whole entry, looked up: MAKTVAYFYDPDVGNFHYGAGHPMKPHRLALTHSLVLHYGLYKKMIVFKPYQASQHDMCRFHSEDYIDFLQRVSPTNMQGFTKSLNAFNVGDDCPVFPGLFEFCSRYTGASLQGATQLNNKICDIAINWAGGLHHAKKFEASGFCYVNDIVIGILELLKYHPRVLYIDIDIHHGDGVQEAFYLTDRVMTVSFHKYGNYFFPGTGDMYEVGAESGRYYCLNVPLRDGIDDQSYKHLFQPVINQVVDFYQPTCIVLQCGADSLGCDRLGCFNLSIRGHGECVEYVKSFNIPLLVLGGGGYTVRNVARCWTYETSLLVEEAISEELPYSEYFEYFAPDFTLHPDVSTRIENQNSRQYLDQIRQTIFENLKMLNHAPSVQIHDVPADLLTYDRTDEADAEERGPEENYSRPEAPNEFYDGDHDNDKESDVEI

Each molecule was assayed against Histone deacetylase 3 (Homo sapiens) (UniProt O15379) (assay: HDAC3 deacetylase inhibitors, primary screen, biochemical, fluorescence, cell-free homogeneous (AID 2718)). Conditions: recombinant HDAC3, fluorogenic peptide/trypsin coupled, at 8.3 µM, stronger effect = higher value.

Compound	inhibition
O=C(Oc1ccc(=O)n(-c2ccccc2)n1)c1ccccc1	active: 80.8%
CN1CCC(N(C)S(=O)(=O)c2ccc(NC(=O)c3ccc(S(=O)(=O)N(C)C)cc3)cc2)CC1	inactive: 10.2%
Cc1ccc(NC(=O)CN(C)C(=O)Cc2c[nH]c3ccccc23)cc1	inactive: 2.69%
Cn1cc(P(=S)(N2CCOCC2)N2CCOCC2)cc1P(=S)(N1CCOCC1)N1CCOCC1	inconclusive: 25.2%
Cc1cc(C)nc(NS(=O)(=O)c2ccc(NC(=O)c3cc4c(=O)n5cccc(C)c5nc4n3C)cc2)n1	inactive: 5.51%
CC(C)Cc1csc(NC(=O)c2ccccc2Cl)c1C(=O)O	inactive: -80.7%
OCCn1nc2c3ccccc3nc-2n(-c2ccccc2)c1=S	inactive: 10.9%
COC(=O)[C@@H](NCc1cccc(CN[C@H](C(=O)OC)C(C)C)c1)C(C)C	inconclusive: 10.1%
CCOC(=O)c1[nH]cc(-c2ccccc2)c1N1CCOCC1	inactive: -9.39%
CCOC(=O)Cc1ncccc1C(=O)Nc1ccc(Oc2ccccc2)cc1	inconclusive: 16.6%
COc1ccc(CN(C(=O)c2ccco2)c2ccc(Br)cc2)cc1OC	inactive: 0.81%
CCS(=O)(=O)c1ccc2oc(SCC(=O)c3ccco3)nc2c1	inconclusive: 19%
CCOc1ccc(NC(=O)CCC(=O)N/N=C/c2ccc3c(c2)OCO3)cc1	inactive: -4.87%
C/C=C(/C)C(=O)Nc1cccc(C2=NOC3(C2)C[C@@H](C(N)=O)N(C(=O)CC)C3)c1 (stereo not given in full)	inactive: -5.35%
Clc1ccc(-c2nnc(NCc3ccccc3)c3ccccc23)cc1	inconclusive: 23.2%
S=C(Nc1ccccc1)N1CCCCC1	inconclusive: 15.1%
O=C1NN=C(c2ccccc2)CC1c1c[nH]c2ccccc12 (stereo not given)	inconclusive: 21.9%
Cc1ccccc1OCC(=O)Nc1nnc(S(=O)(=O)N2CCCC2)s1	inconclusive: 13.8%
O=C(CCN1C(=O)C2CC=C(Cl)CC2C1=O)NCc1ccco1 (stereo not given)	inconclusive: 18%
Cc1ccc(CS(=O)Cc2ccc(C(=O)NCc3ccc4c(c3)OCO4)o2)cc1 (stereo not given)	inconclusive: 19.5%
CC(C)(CNC(=O)c1ccc(NS(=O)(=O)c2ccc(F)c(F)c2)cc1)N1CCOCC1	inactive: 4.12%
C/C(O)=C/c1nc2ccccc2[nH]c1=O	inconclusive: 9.16%
C=C(C)c1cccc(C(C)(C)NC(=O)N2CCN(c3ccccc3)CC2)c1	inconclusive: 9.7%

Compound	inhibition
CCCn1c(SCC(=O)NCCc2ccccc2)nnc1-c1cccnc1	inconclusive: 26.1%
O=C(NCc1cccnc1)c1ccc(COc2cccc3ccccc23)o1	inconclusive: 12.4%
COc1ccnc(Oc2ccc3ccccc3c2)c1C#N	inconclusive: 16.9%
O=C(Cc1ccc(Cl)cc1)N/N=C/c1ccncc1	inconclusive: 20.3%
CN(C)S(=O)(=O)Oc1cccc(C(=O)Nc2cccc(Cl)c2)c1	inconclusive: 24%
Cc1cc(C)nc(/N=C(\N)Nc2ccc(OCCC(C)C)cc2)n1	inactive: -3.17%
Cn1nc(C(=O)OCC(=O)Nc2ccc(F)cc2Cl)c2ccccc2c1=O	inactive: -2.24%
CC(C)(CO)NC(=O)CC1C(=O)NCCN1Cc1ccc(-c2ccccc2)cc1 (stereo not given)	inconclusive: 20.9%
CC1(C)CC(=O)C(C=Nc2ccncc2)=C(O)C1	inconclusive: 18.8%
C[C@]12c3[nH]c4ccccc4c3CCN1C(=O)C(CC(=O)NCC13CC4CC(CC(C4)C1)C3)C[C@@H]2C(=O)N1CCCCC1 (stereo not given in full)	inconclusive: 19.8%
Cc1ccc2c(c1)c(CC(=O)Nc1ccc(C)c(F)c1)c(C(=O)O)n2C	inconclusive: 22.4%
CSc1nc(-c2ccc(Cl)cc2)nn1S(=O)(=O)c1ccccc1	inactive: -3.51%
COCCNC(=O)C1CC2Cn3c(nc4ccccc43)C2N1C (stereo not given)	inactive: -1.61%
CC1Cc2ccccc2N1C(=O)CN1C(=O)NC2(CCCCC2)C1=O (stereo not given)	inactive: -0.371%
Cc1cc(NC(=O)CSc2nnc(CNC(=O)c3ccccc3)o2)no1	inconclusive: 12.1%
CCN1CCN(C(=O)c2cc(COc3ccc(C(C)=O)cc3OC)on2)CC1	inconclusive: 12%
O=C(Oc1ccc(Cl)c2cccnc12)c1ccco1	inconclusive: 23%
COc1ccc(C(CNC(=O)c2cccc(S(=O)(=O)N3CCCCC3)c2)N2CCCC2)cc1 (stereo not given)	inactive: 2.29%
COc1cc(Cl)c(C)cc1NC(=O)c1ccc2c(c1)OCO2	inactive: -5.38%
CN(C)/C=C/C(=O)c1ccc2noc(-c3ccccc3)c2c1	inactive: 10.9%
COc1ccc(N(C(=O)c2ccco2)S(=O)(=O)c2ccccc2)cc1	inconclusive: 28.4%
COc1ccccc1-c1c(C)oc2cc(OC(=O)c3ccco3)ccc2c1=O	active: 31.4%
O=C(c1cc2ccccn2n1)N1CCN(c2ccccn2)CC1	inconclusive: 13.4%

Compound	inhibition
CCc1ccc(OCCNC(=O)c2ccccc2SCc2ccc(F)cc2)cc1	inconclusive: 20.7%
CC(=O)c1sc(C(=O)O)c(-c2ccco2)c1-c1ccco1	inconclusive: 19.6%
Oc1ccc(/C=N/Nc2cc(N3CCCC3)nc(N3CCCC3)n2)cc1	inconclusive: 13.9%
O=c1[nH]cc(COCC(F)CCl)c(=O)[nH]1 (stereo not given)	inactive: 3.51%
CCn1c(SCC(=O)Nc2ccc(OC)cc2)nc2nc3c(cc2c1=O)COC(C)(C)C3	inactive: -1.51%
CCOC(=O)c1cc(-c2ccccc2)sc1NC(=O)C(C)Sc1nnc(C)s1 (stereo not given)	inconclusive: 10.2%
CN(C1CCCCC1)S(=O)(=O)c1cc2c3c(c1)CCN3C(=O)CC2	inconclusive: 20.5%
CC(=O)NNC(=S)NC(=O)c1cccc([N+](=O)[O-])c1	inconclusive: 12.1%
CCn1nc(C)c(CN2CCC(C(=O)Nc3cccc(-c4cccc(Cl)c4)c3)CC2)c1C	inconclusive: 21.6%
N#Cc1ccc(N=c2ssnc2Cl)cc1	active: 32.1% and active: 37.7%
COc1ccc(C2(CNC(=O)c3ccco3)CCOCC2)cc1	inactive: 1.32%
COc1ccccc1NC(=O)C(=O)NNC(=O)c1ccco1	inconclusive: 23.8%
CCOc1ccc2c(c1)n(CO)c(=S)n2CO	inactive: -0.187%
Nc1c(C(=O)CSc2nncn2-c2ccccc2)c(=O)[nH]c(=O)n1C1CC1	inconclusive: 21.4%
Cc1ccc(NC2=C(C(=O)c3ccccc3)N(C)S(=O)(=O)c3ccccc32)cc1	inconclusive: 16.5%
C/C(=N\NC(=O)c1cccc(C)c1)c1ccc(N2CCOCC2)cc1	inconclusive: 33.4%
CSc1ccc(CN2CCC(n3nccc3NC(=O)c3ccccc3C)CC2)cc1	inconclusive: 22.2%
COc1cc(C(=O)NCc2nnc(SCC(=O)c3ccccc3)o2)cc(OC)c1OC	inconclusive: 41.5%
CCc1c(C(=O)N2CCN(c3ccccc3F)CC2)[nH]c(C)c1C(C)=O	inactive: 4.57%
COc1ccc(-n2c(C)nnc2SCC(=O)N2CCOCC2)cc1	inactive: -6.08%
O=C(CCCN1C(=O)/C(=C\c2ccccc2)SC1=S)Nc1cccc(C(=O)O)c1	inconclusive: 25.4%
Cc1noc(C)c1C(=O)N1CCCC1	inactive: 5.5%
COc1cccc(CN(C)C(=O)c2ccc(OCC(=O)Nc3cccc(C(F)(F)F)c3)c(OC)c2)c1	inconclusive: 19.8%

Compound	inhibition
Cc1ccc(S(=O)(=O)N2CC=C(C(=O)NC3CC3)CC2)cc1	inconclusive: 9.38%
CCCCCCC(=O)N(O)C1CC(=O)N(c2ccc(Br)cc2)C1=O (stereo not given)	active: 80%
CCN1CCN(CC(=O)Nc2ccc(N(C)C)cc2)CC1	inactive: -3.42%
CCN(CC)CCOC(=O)C1(c2ccccc2)CCCC1	inactive: -9.16%
Nn1c(SCC(=O)Nc2ccc(F)cc2F)nnc1-c1cccnc1	inactive: 1.39%
COc1ccc2c(C#N)c3ccccn3c2c1	inconclusive: 4.06%
CN(CC(=O)Nc1ccc(Cl)c(C(F)(F)F)c1)CC(=O)NC1CCCCC1	inconclusive: 41%
CSCc1ccc(C(=O)Nc2ccc(C(N)=O)cc2)cc1	inactive: -0.373%
CCC(C(=O)Nc1cccc(C(=O)O)c1)c1ccccc1 (stereo not given)	inconclusive: 18.6%
COc1ccc(OC(=O)COc2ccc(C)cc2)cc1	inactive: 1.9%
O=S(=O)(NCC(O)c1ccccc1)c1cc(Cl)sc1Cl (stereo not given)	inconclusive: 26.6%
COc1ccc(N2CC(C(=O)OCC(=O)c3ccc(C)cc3)CC2=O)cc1 (stereo not given)	inactive: -7.37%
S=c1[nH]nc(-c2ccc3ccccc3n2)n1-c1ccc2c(c1)OCCO2	inconclusive: 21.1%
Cc1ccc(N(C(=O)Cc2cccs2)C(C(=O)NC2CCCC2)c2ccncc2)cc1 (stereo not given)	inconclusive: 37.2%
Cc1cc(N2CCCC(C(=O)Nc3cccc(Cl)c3)C2)n2ncnc2n1 (stereo not given)	inactive: 2.37%
Cc1ccc(N(C(C)C(=O)Nc2ccc(S(=O)(=O)N3CCOCC3)cc2)S(C)(=O)=O)cc1 (stereo not given)	inactive: -3.5%
O=C(CN1CCN(c2cccc(Cl)c2)CC1)NC1CCCc2ccccc21 (stereo not given)	inactive: -7.22%
CCOc1ccccc1NC(=O)NCc1ccc(F)cc1	inactive: 0.246%
COc1ccc(O)c(CN2CCN(C/C=C/c3ccccc3)CC2)c1	inconclusive: 18.1%
Cc1cccc(/C=C2/S/C(=N/N=C3\CC4CCC3(C)C4(C)C)NC2=O)c1 (stereo not given)	inconclusive: 17.6%
CC(=O)Oc1ccc(-c2csc(Nc3ccc(S(N)(=O)=O)cc3)n2)cc1	inconclusive: 12%
